Experimental data from article PMC6050252.
Like-named read-outs stand apart in the source and are kept apart here. These are yes or no findings as the source states them, for the method shown. Binding seen in cells or lysates may run through a third protein. These calls come from enrichment with a bait or labelling near it, and not all partners need be listed.

Protein sequences, listed by entry. Tags and fused reporters are not part of them.
UniProt O54827: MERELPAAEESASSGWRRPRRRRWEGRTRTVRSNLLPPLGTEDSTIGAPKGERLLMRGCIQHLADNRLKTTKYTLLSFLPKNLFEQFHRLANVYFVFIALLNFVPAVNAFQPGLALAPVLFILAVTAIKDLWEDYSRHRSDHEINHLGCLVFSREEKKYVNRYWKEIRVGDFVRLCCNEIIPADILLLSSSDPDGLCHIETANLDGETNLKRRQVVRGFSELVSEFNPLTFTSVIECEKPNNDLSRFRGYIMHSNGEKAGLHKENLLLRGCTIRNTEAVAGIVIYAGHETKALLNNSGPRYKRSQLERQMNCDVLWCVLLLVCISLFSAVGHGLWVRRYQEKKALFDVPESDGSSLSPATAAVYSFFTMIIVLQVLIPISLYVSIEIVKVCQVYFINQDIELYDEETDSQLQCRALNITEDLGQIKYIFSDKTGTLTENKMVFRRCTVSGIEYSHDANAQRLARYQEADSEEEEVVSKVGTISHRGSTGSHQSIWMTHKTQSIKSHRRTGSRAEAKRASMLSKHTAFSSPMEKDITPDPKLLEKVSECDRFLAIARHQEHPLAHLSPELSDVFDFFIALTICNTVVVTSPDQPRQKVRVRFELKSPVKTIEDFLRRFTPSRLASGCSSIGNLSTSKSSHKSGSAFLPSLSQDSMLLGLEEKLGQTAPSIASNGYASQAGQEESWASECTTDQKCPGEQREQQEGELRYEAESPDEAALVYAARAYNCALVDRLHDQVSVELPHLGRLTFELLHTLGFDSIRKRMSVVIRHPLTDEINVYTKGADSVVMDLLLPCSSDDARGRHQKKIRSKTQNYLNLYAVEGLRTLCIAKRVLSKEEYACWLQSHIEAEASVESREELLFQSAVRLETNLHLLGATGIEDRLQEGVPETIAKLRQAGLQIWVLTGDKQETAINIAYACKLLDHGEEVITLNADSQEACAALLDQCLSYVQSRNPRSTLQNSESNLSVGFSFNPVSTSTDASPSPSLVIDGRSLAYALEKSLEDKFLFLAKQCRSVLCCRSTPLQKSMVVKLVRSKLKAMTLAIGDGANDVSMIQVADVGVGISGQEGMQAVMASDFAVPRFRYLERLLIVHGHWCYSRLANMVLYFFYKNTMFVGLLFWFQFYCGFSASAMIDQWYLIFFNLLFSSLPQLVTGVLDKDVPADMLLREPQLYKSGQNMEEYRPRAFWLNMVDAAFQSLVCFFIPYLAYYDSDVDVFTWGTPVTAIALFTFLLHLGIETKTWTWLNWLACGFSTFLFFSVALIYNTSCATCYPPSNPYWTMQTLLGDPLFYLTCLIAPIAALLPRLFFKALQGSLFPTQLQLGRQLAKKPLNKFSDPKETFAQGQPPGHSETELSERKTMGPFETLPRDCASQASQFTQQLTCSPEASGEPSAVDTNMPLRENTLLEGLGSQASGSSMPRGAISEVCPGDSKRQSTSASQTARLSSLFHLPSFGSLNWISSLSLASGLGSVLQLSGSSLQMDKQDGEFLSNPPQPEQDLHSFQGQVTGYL

T1: CDC50A (TMEM30A), mouse, endogenous (mouse (endogenous in mouse tissues)) (UniProt Q8VEK0)
T1 sequence: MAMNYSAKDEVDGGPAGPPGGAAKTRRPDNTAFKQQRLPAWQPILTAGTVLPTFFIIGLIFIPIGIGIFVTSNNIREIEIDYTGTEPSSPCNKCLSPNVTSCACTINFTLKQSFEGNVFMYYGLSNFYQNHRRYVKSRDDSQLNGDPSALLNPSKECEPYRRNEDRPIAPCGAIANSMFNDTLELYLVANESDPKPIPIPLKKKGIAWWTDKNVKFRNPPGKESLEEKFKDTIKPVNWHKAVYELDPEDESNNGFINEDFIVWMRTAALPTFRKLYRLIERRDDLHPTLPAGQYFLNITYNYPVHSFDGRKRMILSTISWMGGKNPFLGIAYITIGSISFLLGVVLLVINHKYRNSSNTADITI


Experiments:
[1] = target: T1, CDC50A (TMEM30A), mouse, endogenous (mouse (endogenous in mouse tissues)); assay: affinity purification with mass spectrometry; CHAPS-solubilised membranes of mouse retina, liver, brain, testes, kidney (~20 mg protein) on Cdc50-7F4-Sepharose, 4 °C, 1 h; washed in 10 mM CHAPS, 40 mM Tris pH 7.4, 150 mM NaCl, 5 mM MgCl2, 1 mM DTT; eluted with 7F4 peptide; in-gel (retina) or FASP trypsin digestion, MS/MS
[2] = target: T1, CDC50A (TMEM30A), mouse, endogenous (mouse (endogenous in mouse tissues)); assay: as above; remark: listed apart in the source

| Molecule | binding [1] | binding [2] |
| --- | --- | --- |
| ATP10A, mouse, endogenous (from UniProt O54827 1-1508) | binds |  |
| ATP10D, mouse, endogenous (protein, UniProt Q8K2X1 1-1416) MTELLQWARHHWRRLSHGRAQGEDERPYNYASLLACGGKSSRTPRPAGKHRVVIPHLQCFKDEYERFSGTYVNNRIRTTKYTLLNFVPRNLFEQFHRAANLYFLFLVVLNWVPLVEAFQKEITMLPLVVVLTIIAIKDGLEDYRKYKIDKQINNLITKVYSRKEKKYIDCCWKNVTVGDFIRLSCNEIIPADMVLLFSTDPDGICHIETSGLDGESNLKQRQVVRGYTEQDSEVDPEKFSSRIECESPNNDLSRFRGFLEHANKERVGLSKENLLLRGCTIRNTEAVVGIVVYAGHETKAMLNNSGPRYKRSKLERRANTDVLWCVLLLIVMCLTGALGHGIWLSRYENMLFFNIPEPDGRVISPVLTGFYVFWTMIILLQVLIPISLYVSIEIVKLGQIYFIQSDVDFYNEKMDSTIQCRALNITEDLGQIQYLFSDKTGTLTENKMVFRRCSVAGFDYCHEENAKRLESYQEAVSEEEECTDTLGGSLSNMARPRAQGCRTVPSGPLGKPSAQLSGSTSAVGNGEGSGEVPHSRQAAFSSPMETDVVPDTRLLDKFSQLTPQLLTGLDGTAQSSPLETLYIMDFFIALAICNTVVVSAPNQPRQKIGLSSLGGMPIKSLEEIKNIFQKLSVRRSSSPSLASGKDSSSGTPCAFVSRISFFSRPKLSPPMEDESSQMDEIPQASNSACCTETEAQNRAVGLSVSSAEALSGPPPSASNLCYEAESPDEAALVYAARAYRCTLQSRTPEQVMVDFAALGSLTFQLLHILPFDSVRKRMSVVVRHPLSKQVVVYTKGADSVIMELLSVAASDGTNPEQQMIIRERTQRHLDEYAKRGLRTLCVAKKVMSDTEYAEWLRNHFLAETSIDNREELLVESAMRLENKLTLLGATGIEDRLQEGVPESIEALHQAGIKIWMLTGDKQETAVNIAYACKLLEPDDKLFILNTQSQDACGMLMSAILEELQKRAQVSPELASSRKNFPQPSDAQGQGRAGLVITGKTLEFALQESLQRQFLELTAWCQAVICCRATPLQKSEVVKLVRNHHHVLTLPIGDGANDVSMIQVADIGIGVSGQEGMQAVMASDFAISQFRHLSKLLLVHGHWCYTRLSNMILYFFYKNVAYVNLLFWYQFFCGFSGTSMTDYWVLIFFNLLFTSVPPIIYGVLEKDVSAETLLQLPELYRSGQRSEEYLPLTFWITLLDAFYQSLVCFFVPYFTYQGSDIDIFTFGNPLNTAALFIILLHLVIESKSLTWIHMLVTVGSILSYFFFALAFGALCVTCNPPSNPYGIMRKHMLDPVFYLVCVLTTFVALLPRFLYRVLQGSVFPSPVLRAKYFDRLPPEERAEALKRWRGTAKVNHVASKHASQSAAMSGRPTPGSSAVLAMKSATVSTVEQSTRETALDRGCSEPGASKMTGSSAS |  | binds |
| ATP8B2, mouse, endogenous (protein, UniProt P98199 1-1209) MTVPKEIPEKWARAGAPPSWSQKKPSWGTEEERRARANDREYNEKFQYASNCIKTSKYNIVTFLPVNLFEQFQEVANTYFLFLLILQLIPQISSLSWFTTIVPLVLVLTITAVKDATDDYFRHKSDNQVNNRHSQVLINGVLQQEQWMNVCVGDIIKLENNQFVAADLLLLSSSEPHGLCYIETAELDGETNMKVRQAIPVTSELGDVSQLARFDGEVICEPPNNKLDKFSGTLYWKENKFPLSNQNMLLRGCVLRNTEWCFGLVIFAGPDTKLMQNSGRTKFKRTSIDRLMNTLVLWIFGFLVCMGVILAIGNAIWEHEVGTRFQVYLPWDEAVDSAFFSGFLSFWSYIIILNTVVPISLYVSVEVIRLGHSYFINWDKKMFCMKKRTPAEARTTTLNEELGQVEYIFSDKTGTLTQNIMVFNKCSINGHSYGDVFDVLGHKAELGERPEPVDFSFNPLADKKFLFWDSSLLEAVKMGDPHTHEFFRLLSLCHTVMSEEKNEGELYYKAQSPDEGALVTAARNFGFVFRSRTPKTITVHELGTAITYQLLAILDFNNIRKRMSVIVRNPEGKIRLYCKGADTILLDRLHPPTQELLSSTTDHLNEYAGDGLRTLVLAYKDLDEEYYEEWARRRLQASLAQDSREDRLASIYEEVESDMMLLGATAIEDKLQQGVPETIALLTLANIKIWVLTGDKQETAVNIGYSCKMLTDDMTEVFVVTGHTVLEVREELRKARKKMVDSSHAVGNGFTYQGNLSSSKLTSVLEAVAGEYALVINGHSLAHALEADMELEFLETACACKAVICCRVTPLQKAQVVELVKKYKKAVTLAIGDGANDVSMIKTAHIGVGISGQEGIQAVLASDYSFSQFKFLQRLLLVHGRWSYLRMCKFLCYFFYKNFAFTMVHFWFGFFCGFSAQTVYDQYFITLYNIVYTSLPVLAMGVFDQDVPEQRSMEYPKLYEPGQLNLLFNKREFFICIAQGIYTSVLMFFIPYGVFAEATRDDGTQLADYQSFAVTVATSLVIVVSVQIGLDTGYWTAINHFFIWGSLAVYFAILFAMHSNGLFDMFPNQFRFVGNAQNTLAQPTVWLTIALTTAVCIMPVVAFRFLRLSLKPDLSDTVRYTQLVRKKQKAQHRCMRRVGRTGSRRSGYAFSHQEGFGELIMSGKNMRLSSLALSSFSTRSSSSWIESLRRKKSDSANSPSGGAEKPLKG |  | binds |
| ATP8B3, mouse, endogenous (protein, UniProt Q6UQ17 1-1335) MDGVHLGENLEDKDTEFTWEVKANDRTYHKQFKKKGFLCWRQKKYKSNAIHTAKYNIFSFLPLNLYEQFHRMSNLYFLFIIILQGIPEISTLPWFTLFAPLVCLFVIRATRDLVDDIGRHRSDKIINNRPCQILRGKSFLWKKWKNLCVGDVVCLSKDSIVPADLLLLASTEPSSLCYVETADIDGETNLKFRQALTVTHHELTSPKKMASFQGTVTCEEPNSRMHHFVGSLEWNSRKYPLDIGNLLLRGCKIRNTDTCYGLVIYAGLDTKIMKNCGKIHLKRTKLDLMMNKLVALIFLSLVIASLLLTVGFTFMVKQFKAKHYYMSPTHGRSDAMESFFIFWGFLILLSVMVPMAMFIIAEFIYLGNSIFINWDLNMYYEPLDMPAKARSTSLNDQLGQVQYIFSDKTGTLTQNIMTFKKCCINGCIYDSDDEHGTLRKRNPYAWNPFADGKLQFYNKELESLVQGRQDRAVQEFWRLLAICHTVMVQEKDNQLLYQAASPDEEALVTAARNFGYVFLSRTQDTITLVELGEERVYQVLAMMDFNSVRKRMSVLVRNPEGSICLYTKGADTVILERLRSKGVMEATTEEVLAAFAEQTLRTLCLAYKDVEEDAYKEWEPEHQEAALLLQNRAQALHQVYNKMEQNLQLLGATAIEDKLQDGVPETIKCLKKGNIKIWVLTGDKPETAVNIGFACQLLSENMIILEDKDINQVLERYWEDNVHQKAFKMMTHHNMALVINGEFLDQLLLSLRKEPRALVQNAVVDEVAQEPVVSALDFLQKRRISQMWRNAGPSLGTSHSADSKIRESPEVQRERAFVDLASKCQAVICCRVTPKQKALVVALVKKYQQVVTLAIGDGANDVNMIKTADIGVGLAGQEGMQAVQNSDYVLAQFCYLQRLLLVHGRWSYMRVCKFLRYFFYKTVASMMAQIWFSLVNGFSAQPLYEGWFLALFNLLYSTLPVLYIGLFEQDVTAEKSLKMPELYMAGQKGELFNYSIFMQAITHGTITSMINFFVTVMVSSDMSKAGSSHDYQSLGVLVAISSLLSVTLEVMLVVKYWTLLFVGAVVLSLSSYVLMTSLTQSLWMYRISPKTFPFLFADYNVLFEPCSLLLIVLNVALNVLPMLALRTIHRTVLKQRPKGEEEAPSEEVAVEPAMRHLRRGIPARRSSYAFSHREGYANLITQGTILRRQTHVDDSDGGTVCESLNPPEEDIPLQNKDSVFNPRKISILAKKRRHFFGKGSQEEVHPNTSSQTMEKQPTIHRDSETQKLPTTTSATSGKLLPSASEDEAFYSVASQYTLASQPKHTDVHSSFWKSPLWRDSASSSPSQLEVPRKQS |  | binds |
